In patent US20170189504A1, “NOVEL PEPTIDES AND COMBINATION OF PEPTIDES FOR USE IN IMMUNOTHERAPY AGAINST VARIOUS CANCERS” (immatics biotechnologies GmbH, priority 2015, published 2017):

Tested on: HLA-A*02
Experiment: Identification and relative LC-MS quantitation of HLA-A*02-presented tumor-associated peptides on tissue samples (presentation profiles, Tables 13A, 13B, 15, FIG. 1)
Design: species or system human; key to Presentation score NHL / Presentation score CLL / Presentation score BRCA / Presentation score AML / Presentation score GB / Presentation score NSCLC / Presentation score GBC_CCC / Presentation score UEC / Presentation score MEL / Presentation score OSCAR / Presentation score GC / Presentation score UBC / Presentation score OC / Presentation score RCC / Presentation score CRC / Presentation score PCA / Presentation score HCC / Presentation score PC / Presentation score SCLC: specifically presented on tumors (++++); very highly over-presented on tumors compared to a panel of normal tissues (+++); highly over-presented on tumors compared to a panel of normal tissues (++); over-presented on tumors compared to a panel of normal tissues (+)
Conditions: for Presentation score CLL: chronic lymphocytic leukemia (N = 17) vs panel of normal tissues (N = 262); for Presentation score NHL: non-Hodgkin lymphoma (N = 18) vs panel of normal tissues (N = 262); for Presentation score NSCLC: non-small cell lung cancer (N = 90) vs panel of normal tissues (N = 262); for Presentation score UBC: urinary bladder cancer (N = 16) vs panel of normal tissues (N = 262); for Peptide Presentation on cancer entities: HLA-A*02-binding tumor-associated peptides; for Presentation score BRCA: breast cancer (N = 17) vs panel of normal tissues (N = 262); for Presentation score OC: ovarian cancer (N = 20) vs panel of normal tissues (N = 262); for Presentation score GB: glioblastoma (N = 41) vs panel of normal tissues (N = 262); for Presentation score OSCAR: esophageal cancer, including cancer of the gastric-esophageal junction (N = 17) vs panel of normal tissues (N = 262); for Presentation score GC: gastric cancer (N = 29) vs panel of normal tissues (N = 262); for Presentation score AML: acute myeloid leukemia (N = 18) vs panel of normal tissues (N = 262); for Presentation score RCC: renal cell carcinoma (N = 20) vs panel of normal tissues (N = 262); for Presentation score CRC: colorectal cancer (N = 28) vs panel of normal tissues (N = 262); for Presentation score SCLC: small cell lung cancer (N = 19) vs panel of normal tissues (N = 262)
[1] = Table 13A, cancer entities on which the peptide was found presented
[2] = Table 13B, presentation on additional cancer entities
[3] = FIG. 1, A*02 positive samples, only samples with presentation shown

49 (ALNIATHVL; listed as Homo sapiens) [compound 49]
Presentation score CLL (HLA-A*02 peptides): ++++ | Presentation score NHL (HLA-A*02 peptides): ++++ | Presentation score NSCLC (HLA-A*02 peptides): ++++ | Presentation score UBC (HLA-A*02 peptides): ++++ | Peptide Presentation on cancer entities [1]: NSCLC, CLL, UBC, NHL | Peptide Presentation on cancer entities [2]: CRC

50 (ILFHGVFYA; listed as Homo sapiens) [compound 50]
Presentation score BRCA (HLA-A*02 peptides): ++++ | Presentation score NSCLC (HLA-A*02 peptides): ++++ | Presentation score OC (HLA-A*02 peptides): ++++ | Presentation score UBC (HLA-A*02 peptides): ++++ | Peptide Presentation on cancer entities [1]: NSCLC, OC, UBC, BRCA | Peptide Presentation on cancer entities [2]: SCLC

51 (LLFSRLCGA; listed as Homo sapiens) [compound 51]
Presentation score GB (HLA-A*02 peptides): ++++ | Presentation score NSCLC (HLA-A*02 peptides): ++++ | Peptide Presentation on cancer entities [1]: GB, NSCLC | Peptide Presentation on cancer entities [2]: UEC

52 (RLAVLFSGA; listed as Homo sapiens) [compound 52]
Presentation score OSCAR (HLA-A*02 peptides): ++++ | Presentation score GC (HLA-A*02 peptides): ++++ | Presentation score NSCLC (HLA-A*02 peptides): ++++ | Presentation score OC (HLA-A*02 peptides): ++++ | Peptide Presentation on cancer entities [1]: GC, NSCLC, OSCAR, OC | Peptide Presentation on cancer entities [2]: HCC

58 (YLLPLLPAL; listed as Homo sapiens) [compound 58]
Presentation score GB (HLA-A*02 peptides): ++++

60 (ALFAPLVHL; listed as Homo sapiens) [compound 60]
Presentation score AML (HLA-A*02 peptides): ++++ | Peptide Presentation on cancer entities [1]: AML | Peptide Presentation on cancer entities [2]: NHL

67 (TLLQRLTEV; listed as Homo sapiens) [compound 67]
Presentation score AML (HLA-A*02 peptides): +++ | Presentation score CLL (HLA-A*02 peptides): +++ | Presentation score NSCLC (HLA-A*02 peptides): +++ | Presentation score RCC (HLA-A*02 peptides): +++ | Peptide Presentation on cancer entities [1]: NSCLC, CLL, RCC, AML | Peptide Presentation on cancer entities [2]: NHL

68 (SLSNRLYYL; listed as Homo sapiens) [compound 68]
Presentation score CRC (HLA-A*02 peptides): ++++ | Presentation score OSCAR (HLA-A*02 peptides): ++++ | Presentation score GC (HLA-A*02 peptides): ++++ | Peptide Presentation on cancer entities [1]: GC, OSCAR, CRC

69 (FLAVGLVDV; listed as Homo sapiens) [compound 69]
Presentation score AML (HLA-A*02 peptides): ++++ | Presentation score NHL (HLA-A*02 peptides): ++++ | Peptide Presentation on cancer entities [1]: AML, NHL | Peptide Presentation on cancer entities [2]: SCLC

70 (LLLGDSALYL; listed as Homo sapiens) [compound 70]
Presentation score NHL (HLA-A*02 peptides): ++++ | Presentation score RCC (HLA-A*02 peptides): ++++ | Peptide Presentation on cancer entities [1]: RCC, NHL | Peptide Presentation on cancer entities [2]: CRC

72 (FLTAINYLL; listed as Homo sapiens) [compound 72]
Presentation score OC (HLA-A*02 peptides): ++++ | Presentation score RCC (HLA-A*02 peptides): ++++ | Peptide Presentation on cancer entities [1]: OC, RCC | Peptide Presentation on cancer entities [2]: UEC, RCC, AML

73 (YTLREVDTV; listed as Homo sapiens) [compound 73]
Presentation score OSCAR (HLA-A*02 peptides): ++++ | Presentation score NSCLC (HLA-A*02 peptides): ++++ | Presentation score OC (HLA-A*02 peptides): ++++ | Peptide Presentation on cancer entities [1]: NSCLC, OSCAR, OC | Peptide Presentation on cancer entities [2]: AML

74 (TLFGYSVVL; listed as Homo sapiens) [compound 74]
Presentation score AML (HLA-A*02 peptides): ++++ | Peptide Presentation on cancer entities [1]: AML

76 (AVGPVHNSV; listed as Homo sapiens) [compound 76]
Presentation score OSCAR (HLA-A*02 peptides): ++++ | Presentation score GC (HLA-A*02 peptides): ++++ | Peptide Presentation on cancer entities [1]: GC, OSCAR | Peptide Presentation on cancer entities [2]: NSCLC

77 (TLIDEQDIPLV; listed as Homo sapiens) [compound 77]
Presentation score NSCLC (HLA-A*02 peptides): ++++ | Presentation score OC (HLA-A*02 peptides): ++++ | Presentation score SCLC (HLA-A*02 peptides): ++++ | Peptide Presentation on cancer entities [1]: NSCLC, OC, SCLC | Peptide Presentation on cancer entities [2]: SCLC, NHL, HNSCC

78 (TVVTRLDEI; listed as Homo sapiens) [compound 78]
Presentation score OSCAR (HLA-A*02 peptides): ++++ | Presentation score GC (HLA-A*02 peptides): ++++ | Presentation score OC (HLA-A*02 peptides): ++++ | Peptide Presentation on cancer entities [1]: GC, OSCAR, OC

80 (KLYEADFVL; listed as Homo sapiens) [compound 80]
Presentation score AML (HLA-A*02 peptides): ++++ | Presentation score NHL (HLA-A*02 peptides): ++++ | Presentation score NSCLC (HLA-A*02 peptides): ++++ | Peptide Presentation on cancer entities [1]: NSCLC, AML, NHL

82 (FIFDEAEKL; listed as Homo sapiens) [compound 82]
Presentation score OSCAR (HLA-A*02 peptides): ++++ | Presentation score GC (HLA-A*02 peptides): ++++ | Presentation score NSCLC (HLA-A*02 peptides): ++++ | Peptide Presentation on cancer entities [1]: GC, NSCLC, OSCAR

84 (ALCPRIHEV; listed as Homo sapiens) [compound 84]
Presentation score GB (HLA-A*02 peptides): ++++

85 (VLNDILVRA; listed as Homo sapiens) [compound 85]
Presentation score OC (HLA-A*02 peptides): ++++ | Presentation score UEC (HLA-A*02 peptides, uterine cancer (N = 15) vs panel of normal tissues (N = 262)): ++++ | Peptide Presentation on cancer entities [1]: OC, UEC

87 (TIYKDFVYI; listed as Homo sapiens) [compound 87]
Presentation score OSCAR (HLA-A*02 peptides): ++++ | Presentation score GC (HLA-A*02 peptides): ++++ | Presentation score NSCLC (HLA-A*02 peptides): ++++ | Peptide Presentation on cancer entities [1]: GC, NSCLC, OSCAR

88 (AQADHLPQL; listed as Homo sapiens) [compound 88]
Presentation score OSCAR (HLA-A*02 peptides): ++++ | Presentation score GC (HLA-A*02 peptides): ++++ | Presentation score NSCLC (HLA-A*02 peptides): ++++ | Peptide Presentation on cancer entities [1]: GC, NSCLC, OSCAR

90 (FLQDLEQRL; listed as Homo sapiens) [compound 90]
Presentation score SCLC (HLA-A*02 peptides): +++ | Presentation score UBC (HLA-A*02 peptides): + | Peptide Presentation on cancer entities [1]: GC, NSCLC, PCA, CLL, OSCAR, OC, SCLC, UBC, UEC, BRCA, GBC_CCC, CRC, NHL | Peptide Presentation on cancer entities [2]: HNSCC

92 (GLLFSLRSV; listed as Homo sapiens) [compound 92]
number of cancer tissues where the peptide was found to be presented [3]: 14 | number of cell lines where the peptide was found to be presented [3]: 2 | number of normal tissues where the peptide was found to be presented [3]: 1 | Presentation score OSCAR (HLA-A*02 peptides): + | Presentation score RCC (HLA-A*02 peptides): + | Peptide Presentation on cancer entities [1]: NSCLC, HCC, PCA, CLL, OSCAR, OC, UBC, BRCA, MEL, RCC, CRC, AML, NHL | Peptide Presentation on cancer entities [2]: SCLC, HNSCC

94 (LLLPAVPVGA; listed as Homo sapiens) [compound 94]
Presentation score AML (HLA-A*02 peptides): +++ | Presentation score CRC (HLA-A*02 peptides): +++ | Presentation score GB (HLA-A*02 peptides): + | Presentation score NSCLC (HLA-A*02 peptides): + | Peptide Presentation on cancer entities [1]: GB, NSCLC, OC, UBC, CRC, AML | Peptide Presentation on cancer entities [2]: SCLC

95 (GLLGSLFFL; listed as Homo sapiens) [compound 95]
Presentation score BRCA (HLA-A*02 peptides): ++ | Presentation score GBC_CCC (HLA-A*02 peptides, gallbladder adenocarcinoma and cholangiocarcinoma (N = 6) vs panel of normal tissues (N = 262)): +++ | Presentation score NHL (HLA-A*02 peptides): ++ | Presentation score NSCLC (HLA-A*02 peptides): ++ | Presentation score OC (HLA-A*02 peptides): + | Presentation score SCLC (HLA-A*02 peptides): + | Peptide Presentation on cancer entities [1]: NSCLC, OC, SCLC, UEC, BRCA, GBC_CCC, AML, NHL | Peptide Presentation on cancer entities [2]: GC, OSCAR, UBC, MEL, RCC, CRC, PC, HNSCC

96 (LLVSHLYLV; listed as Homo sapiens) [compound 96]
Presentation score CLL (HLA-A*02 peptides): +++ | Presentation score NHL (HLA-A*02 peptides): +++ | Presentation score NSCLC (HLA-A*02 peptides): + | Presentation score UBC (HLA-A*02 peptides): +++ | Peptide Presentation on cancer entities [1]: NSCLC, CLL, OC, UBC, NHL | Peptide Presentation on cancer entities [2]: UEC, CRC, HNSCC

97 (STLPKSLSL; listed as Homo sapiens) [compound 97]
Presentation score OSCAR (HLA-A*02 peptides): +++ | Presentation score GC (HLA-A*02 peptides): +++ | Presentation score GB (HLA-A*02 peptides): + | Presentation score OC (HLA-A*02 peptides): +++ | Peptide Presentation on cancer entities [1]: GB, GC, NSCLC, HCC, PCA, OSCAR, OC, BRCA, NHL

98 (RLFPDFFTRVAL; listed as Homo sapiens) [compound 98]
Presentation score NSCLC (HLA-A*02 peptides): + | Peptide Presentation on cancer entities [1]: NSCLC

101 (ALADFMLSL; listed as Homo sapiens) [compound 101]
Presentation score AML (HLA-A*02 peptides): ++++ | Peptide Presentation on cancer entities [1]: AML

102 (VLLDIQEVFQI; listed as Homo sapiens) [compound 102]
Presentation score AML (HLA-A*02 peptides): ++++ | Peptide Presentation on cancer entities [1]: AML

103 (YLVSEIFKA; listed as Homo sapiens) [compound 103]
Presentation score AML (HLA-A*02 peptides): ++++ | Peptide Presentation on cancer entities [1]: AML

104 (ALISWQPPRA; listed as Homo sapiens) [compound 104]
Presentation score GB (HLA-A*02 peptides): ++++

105 (ALLGTKILL; listed as Homo sapiens) [compound 105]
Presentation score NHL (HLA-A*02 peptides): ++++ | Peptide Presentation on cancer entities [1]: NHL

106 (FINDSIVYL; listed as Homo sapiens) [compound 106]
Presentation score AML (HLA-A*02 peptides): ++++ | Peptide Presentation on cancer entities [1]: AML | Peptide Presentation on cancer entities [2]: NSCLC, HCC, CRC, NHL
